Measurements published in the supplement of paper PMC3334620.
The full ranking holds about 33,000 sequences; the median of “E-score (-0.5 to 0.5)” is about -0.015, and the highest 2% start at about 0.3. Some of the results follow.

Each sequence was assayed against T1, Abf1 (UniProt P14164) (assay: PBM E-score (8-mer binding enrichment) (E-score (-0.5 to 0.5)); higher = stronger / more preferred TF binding). Settings: protein concentration: 200 nM; construct: GST-full length.
T1 sequence: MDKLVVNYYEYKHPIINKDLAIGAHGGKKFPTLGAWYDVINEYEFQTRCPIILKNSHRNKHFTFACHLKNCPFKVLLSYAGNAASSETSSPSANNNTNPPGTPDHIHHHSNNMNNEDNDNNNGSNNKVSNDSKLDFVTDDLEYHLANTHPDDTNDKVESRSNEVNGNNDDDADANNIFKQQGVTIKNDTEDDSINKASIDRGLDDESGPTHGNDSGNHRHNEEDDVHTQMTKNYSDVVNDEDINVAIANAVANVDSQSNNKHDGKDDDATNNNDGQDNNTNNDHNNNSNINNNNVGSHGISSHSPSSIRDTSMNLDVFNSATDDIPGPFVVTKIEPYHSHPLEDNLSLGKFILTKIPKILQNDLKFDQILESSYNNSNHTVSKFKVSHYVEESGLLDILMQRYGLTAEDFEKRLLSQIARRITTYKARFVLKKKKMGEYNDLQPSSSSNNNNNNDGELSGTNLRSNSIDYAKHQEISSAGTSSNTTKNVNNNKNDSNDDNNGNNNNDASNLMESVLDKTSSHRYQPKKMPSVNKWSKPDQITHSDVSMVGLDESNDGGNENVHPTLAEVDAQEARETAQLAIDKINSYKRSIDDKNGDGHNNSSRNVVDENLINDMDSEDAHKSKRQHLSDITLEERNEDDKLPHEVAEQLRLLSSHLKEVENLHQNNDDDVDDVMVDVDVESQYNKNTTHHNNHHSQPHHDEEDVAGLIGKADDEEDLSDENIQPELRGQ
Method in brief: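 Universal all-10-mer Agilent arrays, double-stranded by primer extension on fresh or once-stripped slides, were probed with about 100-200 nM GST-tagged yeast transcription factors made by PURExpress. Fluorescent anti-GST detected bound protein, and masliner normalised the scans. E-scores from the Universal PBM Analysis Suite were given to each ungapped eight-base word pooled with its reverse complement.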

| Sequence | PBM E-score |
| --- | --- |
| GCAAACAA | 0.0374 |
| AGTCAAAC | -0.0544 |
| ACGTTTAA | 0.245 |
| ATCTTTGC | 0.0754 |
| GGCGTCCA | -0.167 |
| CAACGTTG | 0.281 |
| CTCGTTAA | 0.153 |
| AATTCGGA | 0.029 |
| GATAAACA | 0.0474 |
| CGGATCAG | -0.0313 |
| ACATAGGG | -0.165 |
| GCTTTACA | 0.11 |
| GGCAACTA | -0.00878 |
| ACGGGTAT | 0.112 |
| CAACATCG | 0.116 |
| GCCATAAC | -0.327 |
| AAGCGCAC | -0.115 |
| CAGGCGCC | -0.119 |
| GGACACCA | -0.219 |
| GAGCACTC | 0.0666 |
| CTTGATAC | 0.205 |
| GGTCTGGA | -0.254 |

| Sequence | PBM E-score |
| --- | --- |
| ACGAGCTA | 0.0676 |
| GAAATCCC | -0.101 |
| ATGTTAAG | 0.0617 |
| TACTCATA | 0.0292 |
| CCTAAAAC | -0.16 |
| CTTCCACA | -0.0921 |
| ATCGCCAC | 0.275 |
| AGGATTAC | -0.158 |
| GGCGTCAC | -0.0875 |
| GGGCCCTA | -0.219 |
| AACGAAAC | 0.101 |
| AAACTTTG | 0.0105 |
| GTAACCTA | 0.0292 |
| GCTCCAAC | 0.133 |
| AACATCTC | -0.063 |
| TGAAAGCA | 0.0533 |
| CTGAGCCA | -0.225 |
| ACGATCAG | 0.203 |
| GACGCCGA | 0.0176 |
| GCCGGGAC | -0.338 |
| CCACCAGC | 0.0706 |
| AAGGCCAC | -0.121 |

Retrieved one by one from the entries so far, 7 records:

| Sequence | PBM E-score |
| --- | --- |
| GTAACCTA | 0.0292 |
| CTCGTTAA | 0.153 |
| GCCATAAC | -0.327 |
| TGAAAGCA | 0.0533 |
| CAACGTTG | 0.281 |
| GGACACCA | -0.219 |
| AGGATTAC | -0.158 |

Next records

| Sequence | PBM E-score |
| --- | --- |
| AGGAGCGG | -0.329 |
| GGAGGTAC | -0.152 |
| ATGCCACA | 0.0883 |
| CGAGTTCC | 0.137 |
| TAATCATA | 0.172 |
| GAAACTGC | -0.141 |
| CCCCATTC | -0.203 |
| TGATGACA | 0.376 |
| CGAATTAC | 0.0338 |
| GCCCGCTA | -0.00513 |
| CGCCGTAG | 0.209 |
| CAAAACTC | 0.00092 |
| GGCGAACC | -0.0759 |
| ACTTATGC | -0.0348 |
| GAGATATC | 0.25 |
| TCCCGCGA | 0.117 |
| GCGTCGCA | -0.0267 |
| CACAAATA | 0.179 |
| CGATACAA | 0.0457 |
| AGAGAGCA | -0.0954 |
| ACCAATAC | 0.0318 |
| TTAACAAA | 0.0752 |

| Sequence | PBM E-score |
| --- | --- |
| ACAATACA | 0.0265 |
| CGGGTCCA | -0.143 |
| CCGCGCGG | -0.0497 |
| AGGGTGCG | -0.236 |
| CAGAACAA | 0.136 |
| CCTCGAGC | -0.0643 |
| AGCGAACT | -0.0976 |
| GACATATC | 0.281 |
| AGCCAACG | -0.13 |
| ATAAGGTC | 0.118 |
| AGTACTTA | -0.067 |
| ACGGGATA | 0.145 |
| CCAGGGCA | -0.208 |
| CCCAGGAG | -0.25 |
| CATAGCCG | 0.0262 |
| GTGCTAAA | 0.11 |
| ACCACTAC | -0.228 |
| GCAACTTA | -0.0867 |
| CCCTCGAA | -0.224 |
| ATGCATTC | 0.00907 |
